Data on five molecules can be found in article PMC10761714.

B1: CCT7 (protein, UniProt P80313 1-544)
chain: MMPTPVILLKEGTDSSQGIPQLVSNISACQVIAEAVRTTLGPRGMDKLIVDGRGKATISNDGATILKLLDVVHPAAKTLVDIAKSQDAEVGDGTTSVTLLAAEFLKQVKPYVEEGLHPQIIIRAFRTATQLAVNKIKEIAVTVKKQDKVEQRKMLEKCAMTALSSKLISQQKVFFAKMVVDAVMMLDELLQLKMIGIKKVQGGALEESQLVAGVAFKKTFSYAGFEMQPKKYKNPKIALLNVELELKAEKDNAEIRVHTVEDYQAIVDAEWNILYDKLEKIHQSGAKVILSKLPIGDVATQYFADRDMFCAGRVPEEDLKRTMMACGGSIQTSVNALVPDVLGHCQVFEETQIGGERYNFFTGCPKAKTCTIILRGGAEQFMEETERSLHDAIMIVRRAIKNDSVVAGGGAIEMELSKYLRDYSRTIPGKQQLLIGAYAKALEIIPRQLCDNAGFDATNILNKLRARHAQGGMWYGVDINNENIADNFQAFVWEPAMVRINALTAASEAACLIVSVDETIKNPRSTVDPPAPSAGRGRGQARFH
B2: CCT8 (protein, UniProt P42932 1-548)
chain: MALHVPKAPGFAQMLKDGAKHFSGLEEAVYRNIQACKELAQTTRTAYGPNGMNKMVINRLEKLFVTNDAATILRELEVQHPAAKMIVMASHMQEQEVGDGTNFVLVFAGALLELAEELLRIGLSVSEVISGYEIACKKAHEILPELVCCSAKNLRDVDEVSSLLRTSIMSKQYGSETFLAKLIAQACVSIFPDSGNFNVDNIRVCKILGSGIYSSSVLHGMVFKKETEGDVTSVKDAKIAVYSCPFDGMITETKGTVLIKTAEELMNFSKGEENLMDAQVKAIAGTGANVIVTGGKVADIALHYANKYNIMLVRLNSKWDLRRLCKTVGATALPKLTPPVQEEMGHCDSVYLSEVGDTQVVVFKHEKEDGAISTIVLRGSTDNLMDDIERAVDDGVNTFKVLTRDKRLVPGGGATEIELAKQITSYGETCPGLEQYAIKKFAEAFEAIPRALAENSGVKANEVISKLYSVHQEGNKNVGLDIEAEVPAVKDMLEASILDTYLGKYWAIKLATNAAVTVLRVDQIIMAKPAGGPKPPSGKKDWDDDQND
B3: CCT4 (protein, UniProt P80315 1-539)
chain: MPENVASRSGAPTAGPGSRGKSAYQDRDKPAQIRFSNISAAKAVADAIRTSLGPKGMDKMIQDGKGDVTITNDGATILKQMQVLHPAARMLVELSKAQDIEAGDGTTSVVIIAGSLLDSCTKLLQKGIHPTIISESFQKALEKGLEILTDMSRPVQLSDRETLLNSATTSLNSKVVSQYSSLLSPMSVNAVMKVIDPATATSVDLRDIKIVKKLGGTIDDCELVEGLVLTQKVANSGITRVEKAKIGLIQFCLSAPKTDMDNQIVVSDYAQMDRVLREERAYILNLVKQIKKTGCNVLLIQKSILRDALSDLALHFLNKMKIMVVKDVEREDIEFICKTIGTKPVAHIDQFTADMLGSAELAEEVSLNGSGKLFKITGCTSPGKTVTIVVRGSNKLVIEEAERSIHDALCVIRCLVKKRALIAGGGAPEIELALRLTEYSRTLSGMESYCVRAFADAMEVIPSTLAENAGLNPISTVTELRNRHAQGEKTTGINVRKGGISNILEEMVVQPLLVSVSALTLATETVRSILKIDDVVNTR
B4: CCT2 (protein, UniProt P80314 1-535)
chain: MASLSLAPVNIFKAGADEERAETARLSSFIGAIAIGDLVKSTLGPKGMDKILLSSGRDAALMVTNDGATILKNIGVDNPAAKVLVDMSRVQDDEVGDGTTSVTVLAAELLREAESLIAKKIHPQTIISGWREATKAAREALLSSAVDHGSDEARFWQDLMNIAGTTLSSKLLTHHKDHFTKLAVEAVLRLKGSGNLEAIHVIKKLGGSLADSYLDEGFLLDKKIGVNQPKRIENAKILIANTGMDTDKIKIFGSRVRVDSTAKVAEIEHAEKEKMKEKVERILKHGINCFINRQLIYNYPEQLFGAAGVMAIEHADFAGVERLALVTGGEIASTFDHPELVKLGSCKLIEEVMIGEDKLIHFSGVALGEACTIVLRGATQQILDEAERSLHDALCVLAQTVKDPRTVYGGGCSEMLMAHAVTQLANRTPGKEAVAMESFAKALRMLPTIIADNAGYDSADLVAQLRAAHSEGHITAGLDMKEGTIGDMAVLGITESFQVKRQVLLSAAEAAEVILRVDNIIKAAPRKRVPDHHPC
B5: CCT3 (protein, UniProt P80318 1-545)
chain: MMGHRPVLVLSQNTKRESGRKVQSGNINAAKTIADIIRTCLGPKSMMKMLLDPMGGIVMTNDGNAILREIQVQHPAAKSMIEISRTQDEEVGDGTTSVIILAGEMLSVAEHFLEQQMHPTVVISAYRMALDDMISTLKKISTPVDVNNREMMLSIINSSITTKVISRWSSLACNIALDAVKTVQFEENGRKEIDIKKYARVEKIPGGIIEDSCVLRGVMINKDVTHPRMRRYIKNPRIVLLDSSLEYKKGESQTDIEITREEDFTRILQMEEEYIHQLCEDIIQLKPDVVITEKGISDLAQHYLMRANVTAIRRVRKTDNNRIARACGARIVSRPEELREDDVGTGAGLLEIKKIGDEYFTFITDCKDPKACTILLRGASKEILSEVERNLQDAMQVCRNVLLDPQLVPGGGASEMAVAHALTEKSKAMTGVEQWPYRAVAQALEVIPRTLIQNCGASTIRLLTSLRAKHTQESCETWGVNGETGTLVDMKELGIWEPLAVKLQTYKTAVETAVLLLRIDDIVSGHKKKGDDQNRQTGAPDAGQE

Results are given in words; binding and its absence hold for the method and conditions named. Binding seen in cells or lysates may run through a third protein. Here binding means that the protein was enriched with, or labelled near, the bait; the list need not be complete.

This experiment concerns the target GST-MBP-fused mouse STYXL1 protein (mouse). Kind of experiment: affinity purification with mass spectrometry; GST-MBP–STYXL1 on glutathione–Sepharose 4B; pre-cleared WT mouse testes lysate (RIPA) incubated at 4 °C for 4-6 h; washed with 50 mM Tris-HCl pH 8.0, 150 mM NaCl, 2 mM MgCl2, 5% glycerol; eluted with 20 mM GSH; LC-MS/MS; GST-MBP as control; only the target purified.
On to B1, for which the binding entry is listed as “binds”.

With B2, the binding result is “binds”.

Turning to B3, the binding entry is “binds”.

Take B4: the binding result is “binds”.

Turning to B5, the binding result is reported as “binds”.
